Test results published in article PMC10424845, “Gelsevirine is a novel STING-specific inhibitor and mitigates STING-related inflammation in sepsis” (Frontiers in Immunology, 2023).
Results are given in words; binding and its absence hold for the method and conditions named. Binding seen in cells or lysates may run through a third protein. Some results given as binding are weak or reduced against the parent protein; the word gives no strength.

Chains of the proteins cited; added tags and fusions are not shown.
UniProt Q86WV6: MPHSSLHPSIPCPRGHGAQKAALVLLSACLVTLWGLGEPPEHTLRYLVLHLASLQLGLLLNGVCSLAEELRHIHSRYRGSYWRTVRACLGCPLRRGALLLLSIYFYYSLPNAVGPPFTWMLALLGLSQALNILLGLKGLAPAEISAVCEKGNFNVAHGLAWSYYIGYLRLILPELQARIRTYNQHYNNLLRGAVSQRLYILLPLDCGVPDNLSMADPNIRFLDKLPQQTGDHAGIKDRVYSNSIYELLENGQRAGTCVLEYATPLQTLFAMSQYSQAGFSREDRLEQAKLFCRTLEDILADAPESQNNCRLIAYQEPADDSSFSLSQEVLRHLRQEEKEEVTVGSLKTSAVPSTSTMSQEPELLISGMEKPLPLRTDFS
UniProt P19474: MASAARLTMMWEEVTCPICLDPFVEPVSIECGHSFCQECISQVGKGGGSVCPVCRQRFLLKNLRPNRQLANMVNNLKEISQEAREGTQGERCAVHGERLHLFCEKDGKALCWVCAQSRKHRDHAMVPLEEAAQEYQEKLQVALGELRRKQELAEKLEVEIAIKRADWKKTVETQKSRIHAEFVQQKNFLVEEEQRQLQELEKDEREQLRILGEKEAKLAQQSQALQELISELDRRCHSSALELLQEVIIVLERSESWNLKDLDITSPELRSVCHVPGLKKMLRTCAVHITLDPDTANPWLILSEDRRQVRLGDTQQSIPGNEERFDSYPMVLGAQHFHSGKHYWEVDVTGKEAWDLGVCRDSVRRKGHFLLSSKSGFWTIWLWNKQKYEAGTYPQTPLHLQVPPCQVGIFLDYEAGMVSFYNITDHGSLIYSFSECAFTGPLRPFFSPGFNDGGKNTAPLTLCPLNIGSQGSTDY

Target: HA-tagged human STING (STING-HA) (human) (UniProt Q86WV6)
Test: co-IP; HEK293T cells transfected with STING-HA for 24 hrs, with or without GS (10 μM) for 2 hrs; RIPA lysates incubated with antibodies for 12 hrs at 4°C, protein G agarose beads, immunoblot

- binding: binds
Substance: TRIM21 (from UniProt P19474 1-475)
